Results: PubChem BioAssay AID250 (DTP/NCI, 2004)
The list is a part of this screen's results and no random one: it gathers tests that were run many times, whatever their T/C, doses with no T/C, and many T/C values between a quarter and a half above the control. Further doses and runs are listed elsewhere. T/C: endpoint of the treated group in % of that of the vehicle group. Some doses have a count of surviving animals in place of a T/C: the source files T/C as zero there, which appears to mark a toxic dose or a test without result, not a measured value. Some survivor counts are full or nearly so, which does not show that the dose was tolerated: survival well below the control is almost never listed, so the zero probably covers shortened survival too. For some of these results: Counts of survivors are from the toxicity check (mostly the fifth day) where no day follows; animals may have died later. Schedules are NCI's codes, taken here to give the interval after Q, in days (D) or hours (H), and the number of doses after X. Some schedules carry Z or #; the key to these is not given. Some structures stand for samples that the source files as different forms (salt, stereo form or complex); doses refer to the form tested. Some entries were tested several times; the values are given in rising order. For some of these results: Where survival is the endpoint, this PubChem deposit counts one and a half times the control or more as active, and values a quarter to a half above the control carry no call in these data; other NCI protocols may use other cut-offs. Some T/C values are followed by the survivors on the day toxicity was checked, most often the fifth; where none is given, no animal had died by that day.

What was measured:
[1] = tested on: BDF1 mice, L1210 leukemia sc, survival T/C; experiment: NCI In Vivo Anticancer Drug Screen. Data for tumor model L1210 Leukemia (subcutaneous) in B6D2F1 (BDF1) mice; conditions: T/C endpoint: median survival time, higher T/C = longer survival
Outline: (§1)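 Mice carrying transplanted tumors received test compounds, and survival or tumor size was measured. Values are the treated-group measurement (T) divided by that of the vehicle-treated control group (C).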

[2] = tested on: BDF1 mice, L1210 leukemia sc; experiment: as above; conditions: T/C endpoint: median survival time, higher T/C = longer survival
Outline: as §1

**Q.** For `O=C(Nc1ccc(S(=O)(=O)O)cc1)c1ccc([N+](=O)[O-])cc1`, which survivor count ([1]; dose: 1.08 mg/kg/injection, schedule: Q01DX Z (sc), vehicle: water) is on record?
**A.** 5 of 10

**Q.** What about the survivor count ([1]; dose: 1.8 mg/kg/injection, schedule: Q01DX Z (sc), vehicle: water) of the same compound?
**A.** 6 of 10

**Q.** And the survivor count ([1]; dose: 3.0 mg/kg/injection, schedule: Q01DX Z (sc), vehicle: water)?
**A.** 6 of 10

**Q.** And the T/C ([2]; dose: 5.0 mg/kg/injection, schedule: Q01DX Z (sc), vehicle: water)?
**A.** 133 % of control [7 of 10 alive]

**Q.** And the T/C ([2]; dose: 39.0 mg/kg/injection, schedule: Q01DX Z (sc), vehicle: water)?
**A.** 133 % of control [9 of 10 alive]

**Q.** And the T/C ([2]; dose: 65.0 mg/kg/injection, schedule: Q01DX Z (sc), vehicle: water)?
**A.** 133 % of control [9 of 10 alive]

**Q.** How did the survivor count ([1]; dose: 65.0 mg/kg/injection, schedule: Q03HX003 (sc), vehicle: saline) turn out when `NC(CSC(c1ccccc1)(c1ccccc1)c1ccccc1)C(=O)O` (configuration not stated) was run?
**A.** 8 of 8

**Q.** And the survivor count ([1]; dose: 108.0 mg/kg/injection, schedule: Q01DX009 (sc), vehicle: saline)?
**A.** 8 of 8

**Q.** What about the survivor count ([1]; dose: 180.0 mg/kg/injection, schedule: Q01DX009 (sc), vehicle: saline) of the same compound?
**A.** 8 of 8

**Q.** What about the survivor count ([1]; dose: 300.0 mg/kg/injection, schedule: Q01DX009 (sc), vehicle: saline) of the same compound?
**A.** 8 of 8

**Q.** What about the survivor count ([1]; dose: 500.0 mg/kg/injection, schedule: Q01DX009 (sc), vehicle: saline) of the same compound?
**A.** 8 of 8

**Q.** What about the T/C ([2]; dose: 14.0 mg/kg/injection, schedule: Q03HX003 (sc), vehicle: saline) of the same compound?
**A.** 125 % of control

**Q.** And the T/C ([2]; dose: 39.0 mg/kg/injection, schedule: Q01DX009 (sc), vehicle: saline)?
**A.** 132 % of control

**Q.** What about the T/C ([2]; dose: 39.0 mg/kg/injection, schedule: Q02DX005 (sc), vehicle: saline) of the same compound?
**A.** 125 % of control

**Q.** And the T/C ([2]; dose: 65.0 mg/kg/injection, schedule: Q02DX005 (sc), vehicle: saline)?
**A.** 128 % of control

**Q.** And the T/C ([2]; dose: 108.0 mg/kg/injection, schedule: Q02DX005 (sc), vehicle: saline)?
**A.** 135 % of control

**Q.** What about the T/C ([2]; dose: 180.0 mg/kg/injection, schedule: Q02DX005 (sc), vehicle: saline) of the same compound?
**A.** 142 % of control

**Q.** What about the T/C ([2]; dose: 180.0 mg/kg/injection, schedule: Q04DX003 (sc), vehicle: saline) of the same compound?
**A.** 142 % of control

**Q.** What about the T/C ([2]; dose: 300.0 mg/kg/injection, schedule: Q04DX003 (sc), vehicle: saline) of the same compound?
**A.** 132 % of control

**Q.** What about the T/C ([2]; dose: 500.0 mg/kg/injection, schedule: Q04DX003 (sc), vehicle: saline) of the same compound?
**A.** 142 % of control

**Q.** How did the survivor count ([1]; dose: 5.0 mg/kg/injection, schedule: Q01DX Z (sc), vehicle: saline) turn out when `O=C(Nc1ccc(C2=NCCN2)cc1)c1ccc(C(=O)Nc2ccc(C3=NCCN3)cc2)c(Cl)c1` was run?
**A.** 4 of 10 and 6 of 10

**Q.** And the survivor count ([1]; dose: 39.0 mg/kg/injection, schedule: Q01DX Z (ip), vehicle: water)?
**A.** 6 of 10

**Q.** And the survivor count ([1]; dose: 65.0 mg/kg/injection, schedule: Q01DX Z (ip), vehicle: water)?
**A.** 6 of 10

**Q.** What about the survivor count ([1]; dose: 108.0 mg/kg/injection, schedule: Q01DX Z (ip), vehicle: water) of the same compound?
**A.** 3 of 10

**Q.** What about the survivor count ([1]; dose: 216.0 mg/kg/injection, schedule: Q01DX001 (ip), vehicle: water) of the same compound?
**A.** 3 of 8

**Q.** And the survivor count ([1]; dose: 320.0 mg/kg/injection, schedule: Q01DX001 (sc), vehicle: methylcellulose (MC))?
**A.** 3 of 10

**Q.** And the survivor count ([1]; dose: 640.0 mg/kg/injection, schedule: Q01DX001 (sc), vehicle: methylcellulose (MC))?
**A.** 2 of 10

**Q.** What about the survivor count ([1]; dose: 640.0 mg/kg/injection, schedule: Q01DX001 (sc), vehicle: water) of the same compound?
**A.** 2 of 10

**Q.** What about the survivor count ([1]; dose: 1000.0 mg/kg/injection, schedule: Q01DX001 (sc), vehicle: water) of the same compound?
**A.** 3 of 8

**Q.** What about the T/C ([2]; dose: 8.4 mg/kg/injection, schedule: Q01DX Z (sc), vehicle: water) of the same compound?
**A.** 130 % of control

**Q.** And the T/C ([2]; dose: 17.0 mg/kg/injection, schedule: Q01DX Z (ip), vehicle: water)?
**A.** 145 % of control

**Q.** What about the T/C ([2]; dose: 80.0 mg/kg/injection, schedule: Q01DX001 (sc), vehicle: water) of the same compound?
**A.** 133 % of control

**Q.** What about the T/C ([2]; dose: 108.0 mg/kg/injection, schedule: Q01DX Z (sc), vehicle: other) of the same compound?
**A.** 140 % of control

**Q.** And the T/C ([2]; dose: 108.0 mg/kg/injection, schedule: Q01DX Z (sc), vehicle: saline)?
**A.** 140 and 142 % of control [8 of 10 alive]

**Q.** And the T/C ([2]; dose: 108.0 mg/kg/injection, schedule: Q01DX Z (sc), vehicle: water)?
**A.** 130 and 145 % of control

**Q.** What about the T/C ([2]; dose: 180.0 mg/kg/injection, schedule: Q01DX Z (sc), vehicle: water) of the same compound?
**A.** 125 % of control

**Q.** And the T/C ([2]; dose: 216.0 mg/kg/injection, schedule: Q01DX001 (sc), vehicle: water)?
**A.** 125 % of control
